2 molecules from US20240076384A1 can be followed below.

Sequences of proteins named here, by UniProt entry; tags and fusion partners are left off. Residues count along the entry.
UniProt P20138, residues 18-364: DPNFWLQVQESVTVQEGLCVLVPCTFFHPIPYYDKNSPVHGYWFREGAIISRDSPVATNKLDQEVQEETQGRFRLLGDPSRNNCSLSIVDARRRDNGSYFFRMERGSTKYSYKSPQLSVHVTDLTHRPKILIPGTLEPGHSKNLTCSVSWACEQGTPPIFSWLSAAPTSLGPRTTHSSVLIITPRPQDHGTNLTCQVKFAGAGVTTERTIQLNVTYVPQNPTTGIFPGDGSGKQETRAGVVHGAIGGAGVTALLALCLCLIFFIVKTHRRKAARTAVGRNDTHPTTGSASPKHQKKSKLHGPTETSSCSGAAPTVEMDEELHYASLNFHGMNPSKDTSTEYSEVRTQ

Assay [1] addresses CD33 expressed on human AML cell line MV4-11 (human) (UniProt P20138). The assay is described as follows: flow cytometry on MV4-11 cells, anti-human IgG detection, fold over background.
The target is the same in assay [2]. The assay is described as follows: flow cytometry on Mv4-11 cells, anti-human IgG secondary, fold over background against secondary antibody control. For orientation: Flow cytometry measures light scatter and fluorescence of single cells or particles in a stream.
The target in assay [3] is T1, mouse NKG2D expressed on cells (mouse) (UniProt O54709).
T1 sequence (looked up): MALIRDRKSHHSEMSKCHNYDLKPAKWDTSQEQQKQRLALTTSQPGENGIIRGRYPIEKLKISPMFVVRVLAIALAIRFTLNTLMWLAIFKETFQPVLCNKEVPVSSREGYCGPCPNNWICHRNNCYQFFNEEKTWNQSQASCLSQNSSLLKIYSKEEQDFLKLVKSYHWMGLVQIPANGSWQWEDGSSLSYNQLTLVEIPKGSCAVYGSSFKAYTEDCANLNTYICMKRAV
The experiment in a line: flow cytometry on cells expressing mouse NKG2D.

These are yes or no findings as the source states them, for the method shown. Some binding calls cover weakened binding; strength is not graded here.

B1: parental CD33 monoclonal antibody (antibody, V domains shown)
VH: QVQLVQSGAEVKKPGASVKVSCKASGYTFTDYVVHWVRQAPGQGLEWMGYINPYNDGTKYNEKFKGRVTMTRDTSISTAYMELSRLRSDDTAVYYCARDYRYEVYGMDYWGQGTLVTVSS
VL: DIVLTQSPASLAVSPGQRATITCTASSSVNYIHWYQQKPGQPPKLLIYDTSKVASGVPARFSGSGSGTDFTLTINPVEANDTANYYCQQWRSYPLTFGQGTKLEIK
For B1, the binding result in assay [1] and in assay [2] was “binds” in each case.

B2: CD33-TriNKET-A49 (ADI-27749 and a CD33 binding domain) (bispecific antibody, V domains shown)
VH 1: EVQLVESGGGLVKPGGSLRLSCAASGFTFSSYSMNWVRQAPGKGLEWVSSISSSSSYIYYADSVKGRFTISRDNAKNSLYLQMNSLRAEDTAVYYCARGAPMGAAAGWFDPWGQGTLVTVSS
VL 1: DIQMTQSPSSVSASVGDRVTITCRASQGISSWLAWYQQKPGKAPKLLIYAASSLQSGVPSRFSGSGSGTDFTLTISSLQPEDFATYYCQQGVSFPRTFGGGTKVEIK
VH 2: B1 VH
VL 2: B1 VL
B2: in assay [3], the binding entry is “binds”.
